Primary screen of a compound library

By UniProt entry, the sequences of proteins in these tests, tags left out. Residues count along the entry.
UniProt P9WFT3, whole entry: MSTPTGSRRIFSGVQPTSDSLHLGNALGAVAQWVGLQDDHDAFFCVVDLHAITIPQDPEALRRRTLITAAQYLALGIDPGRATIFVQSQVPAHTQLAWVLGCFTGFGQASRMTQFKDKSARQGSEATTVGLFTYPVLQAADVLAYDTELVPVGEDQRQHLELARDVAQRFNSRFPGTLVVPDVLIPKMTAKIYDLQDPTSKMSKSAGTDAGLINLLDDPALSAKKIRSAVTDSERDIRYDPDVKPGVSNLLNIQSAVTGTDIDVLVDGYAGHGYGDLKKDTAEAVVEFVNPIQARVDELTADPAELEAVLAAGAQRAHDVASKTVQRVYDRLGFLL
UniProt P9WNZ1, whole entry: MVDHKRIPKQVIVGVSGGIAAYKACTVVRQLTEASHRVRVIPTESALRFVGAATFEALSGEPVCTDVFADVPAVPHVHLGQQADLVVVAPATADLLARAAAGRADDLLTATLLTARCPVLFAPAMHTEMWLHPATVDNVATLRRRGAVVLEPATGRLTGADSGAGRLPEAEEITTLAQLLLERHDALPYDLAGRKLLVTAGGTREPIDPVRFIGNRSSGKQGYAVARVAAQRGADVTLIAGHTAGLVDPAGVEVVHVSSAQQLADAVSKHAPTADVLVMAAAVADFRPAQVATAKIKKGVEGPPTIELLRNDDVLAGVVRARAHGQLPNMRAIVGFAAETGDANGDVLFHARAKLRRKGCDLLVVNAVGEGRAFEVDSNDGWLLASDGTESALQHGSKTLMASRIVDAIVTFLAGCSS
UniProt A4I591, 1-473: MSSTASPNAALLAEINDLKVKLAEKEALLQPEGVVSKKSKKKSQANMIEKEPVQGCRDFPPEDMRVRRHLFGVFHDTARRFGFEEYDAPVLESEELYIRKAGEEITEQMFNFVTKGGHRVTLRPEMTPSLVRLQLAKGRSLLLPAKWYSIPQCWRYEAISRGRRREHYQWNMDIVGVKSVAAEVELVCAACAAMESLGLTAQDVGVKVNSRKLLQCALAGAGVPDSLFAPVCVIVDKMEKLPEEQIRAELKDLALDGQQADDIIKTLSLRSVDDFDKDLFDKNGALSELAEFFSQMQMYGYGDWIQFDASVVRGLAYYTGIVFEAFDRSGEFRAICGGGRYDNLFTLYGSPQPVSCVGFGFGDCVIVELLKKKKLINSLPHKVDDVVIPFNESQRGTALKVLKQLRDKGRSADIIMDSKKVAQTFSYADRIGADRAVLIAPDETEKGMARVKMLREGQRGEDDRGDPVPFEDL
UniProt I6X8D2, whole entry: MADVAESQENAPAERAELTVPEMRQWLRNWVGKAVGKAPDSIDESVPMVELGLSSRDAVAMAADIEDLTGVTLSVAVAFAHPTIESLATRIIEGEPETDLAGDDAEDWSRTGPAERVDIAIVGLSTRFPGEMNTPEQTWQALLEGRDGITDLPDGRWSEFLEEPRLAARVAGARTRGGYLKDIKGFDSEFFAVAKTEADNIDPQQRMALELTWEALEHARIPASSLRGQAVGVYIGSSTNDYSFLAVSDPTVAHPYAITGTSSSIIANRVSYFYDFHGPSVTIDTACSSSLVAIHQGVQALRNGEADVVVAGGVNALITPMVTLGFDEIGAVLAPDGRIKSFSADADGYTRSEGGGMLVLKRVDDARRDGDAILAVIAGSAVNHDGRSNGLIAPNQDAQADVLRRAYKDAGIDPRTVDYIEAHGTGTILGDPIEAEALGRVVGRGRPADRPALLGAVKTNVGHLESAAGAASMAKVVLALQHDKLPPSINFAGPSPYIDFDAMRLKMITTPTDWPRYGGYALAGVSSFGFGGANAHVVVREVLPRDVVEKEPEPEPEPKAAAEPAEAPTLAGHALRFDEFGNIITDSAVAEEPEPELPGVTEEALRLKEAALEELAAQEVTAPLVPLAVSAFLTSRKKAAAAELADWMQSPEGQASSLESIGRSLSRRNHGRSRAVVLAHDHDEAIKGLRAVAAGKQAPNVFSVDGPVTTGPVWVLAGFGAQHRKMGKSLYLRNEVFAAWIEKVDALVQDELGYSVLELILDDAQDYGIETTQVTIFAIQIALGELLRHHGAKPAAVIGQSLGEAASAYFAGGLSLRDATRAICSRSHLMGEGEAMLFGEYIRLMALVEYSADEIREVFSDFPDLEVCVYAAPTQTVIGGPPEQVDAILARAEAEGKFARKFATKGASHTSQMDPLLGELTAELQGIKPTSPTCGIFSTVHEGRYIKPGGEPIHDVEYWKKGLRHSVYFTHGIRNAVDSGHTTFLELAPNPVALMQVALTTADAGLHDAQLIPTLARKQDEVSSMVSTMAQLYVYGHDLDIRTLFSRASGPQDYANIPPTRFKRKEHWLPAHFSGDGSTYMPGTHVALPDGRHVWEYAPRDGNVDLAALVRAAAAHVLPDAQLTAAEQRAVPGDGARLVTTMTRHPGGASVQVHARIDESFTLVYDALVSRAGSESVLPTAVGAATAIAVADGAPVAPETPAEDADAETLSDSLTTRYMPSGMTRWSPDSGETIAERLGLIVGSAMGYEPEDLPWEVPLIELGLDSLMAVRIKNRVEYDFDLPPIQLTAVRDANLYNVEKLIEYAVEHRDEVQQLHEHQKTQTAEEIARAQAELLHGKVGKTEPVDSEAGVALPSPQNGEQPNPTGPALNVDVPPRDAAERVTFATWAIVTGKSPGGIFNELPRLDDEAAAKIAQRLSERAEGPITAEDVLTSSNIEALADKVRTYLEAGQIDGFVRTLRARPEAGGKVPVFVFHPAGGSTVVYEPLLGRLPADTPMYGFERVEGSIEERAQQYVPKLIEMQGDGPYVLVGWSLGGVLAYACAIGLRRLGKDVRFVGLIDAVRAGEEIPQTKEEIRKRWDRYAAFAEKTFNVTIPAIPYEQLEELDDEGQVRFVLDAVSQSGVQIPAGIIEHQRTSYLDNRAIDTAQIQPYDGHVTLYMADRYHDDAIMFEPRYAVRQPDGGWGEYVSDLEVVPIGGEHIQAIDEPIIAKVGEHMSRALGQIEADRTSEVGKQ

MtTrpRS: 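Tryptophan-tRNA ligase, Mycobacterium tuberculosis (UniProt P9WFT3). Enzyme assay of tryptophanyl-tRNA synthetase; the read-out is not stated. Compounds at 10 µM. Direction is not recorded; retested compounds ran higher, which suggests that high means inhibition. Of about 65,000 compounds tested this way, about 64 (0.098%) reached 50% or more in at least one test.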
CoaBC: 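Coenzyme A biosynthesis protein CoaBC, Mycobacterium tuberculosis (UniProt P9WNZ1). Enzyme assay of CoaBC with a phosphate dye (Biomol Green) read at 650 nm. Tested at 30 µM. Higher reads as stronger inhibition, judged from the few compounds that gave an IC50. Most strong results did not repeat in a second test. Size under these conditions: about 67,000 compounds, about 40 of them at 50% or above in at least one test.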
LiHisRS: 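Enzyme assay of histidyl-tRNA synthetase; the read-out is not stated. Target: Histidine-tRNA ligase, Leishmania infantum (UniProt A4I591). Concentration: 30 µM. Higher reads as stronger inhibition (inferred: compounds with an IC50 in retests scored well above the rest). The assay is labelled LdHisRS but filed under L. infantum. Size under these conditions: about 69,000 compounds, about 410 of them at 50% or above in at least one test.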
Pks13 thioesterase: 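Enzyme assay of the thioesterase domain of polyketide synthase 13; the read-out is not stated. Target: Polyketide synthase Pks13, Mycobacterium tuberculosis (UniProt I6X8D2). Tested at 30 µM. The record gives no direction; the compounds picked for IC50 retests had high values, so higher reads as stronger inhibition. Size under these conditions: about 67,000 compounds, about 300 of them at 50% or above in at least one test.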

The filed quantity is “Percent Effect” (%). The record does not define 0% and 100%; most values in the screen are far below 50% and negative numbers occur (in some assays of this library far below -100). Compounds were drawn at random from those tested, without regard to their results. A dash means the value is not listed here; it may have been measured.

| Compound | MtTrpRS | CoaBC | LiHisRS | Pks13 thioesterase |
|---|---|---|---|---|
| `COc1ccc(CNC(=O)NC2CCN(C)CC2)c(C(F)(F)F)c1` | 2.007 | 7.922 | 14.16 | -4.128 |
| `CCOc1ccc(Cl)cc1C(C(=O)O)N1CCCC1` (stereo not shown) | 0.4724 | -4.604 | 19.67 | -3.187 |
| `CC(C)c1ccc(/C=C/CC(=O)NC2CCS(=O)(=O)CC2)cc1` | -2.714 | 0.8589 | 7.843 | -11.54 |
| `COc1ccc(CCC(=O)NCCN2CCC(c3cccs3)CC2)cc1` | 2.494 | 4.452 | -4.494 | -2.003 |
| `Cc1cccc(-c2noc(CN3CCCCC3Cn3cncn3)n2)c1` (stereo not shown) | -8.284 | 1.044 | 1.724 | -8.709 |
| `O=C(N[C@@H]1CCNC[C@H]1O)c1ccc(-c2ccc(F)cc2)cc1` | 1.154 | -30.53 | 11.32 | 12.54 |
| `Cn1cc(CNC2CCCOc3c(Cl)cccc32)cn1` (stereo not shown) | -2.994 | -3.385 | 5.618 | -0.09147 |
| `CCc1cc(NCCS(=O)(=O)N(C)C)nc(N2CCOCC2)n1` | -0.8256 | - | 15.83 | -22.17 |
| `CC(CCO)Nc1cccc(C(F)(F)F)n1` (stereo not shown) | -0.6369 | 5.622 | 19.4 | -6.739 |
| `CN(CCO)Cc1nnc(C2CCN(C[C@H]3[C@@H]4CNC[C@@H]43)CC2)n1C` | -3.153 | -2.828 | 9.375 | -25.61 |
| `O=C(c1cnccn1)N1CC(S(=O)(=O)c2ccc(Cl)cc2)C1` | 0.9488 | -2.663 | 6.522 | -3.137 |
| `O=C(O)COc1ccccc1CN1CCCC1c1cnccn1` (stereo not shown) | - | 1.363 | 4 | -3.996 |
| `O=C(NCc1cncc2c1CCN(C1CCOCC1)C2)c1ccno1` | - | 1.818 | 11.54 | 6.735 |
| `Cc1noc(C)c1CNc1cccc(C(=O)N2CCCC(O)C2)c1` (stereo not shown) | -3.875 | 17.36 | 27.4 | -20.74 |
| `CC(C)=CCN1C[C@H]2CC[C@@H]1CN(S(=O)(=O)c1cccnc1)C2` | 5.936 | 6.379 | 13.98 | 7.633 |
| `CCCn1nccc1S(=O)(=O)N1CCC2(CCCN(C(C)C)C2=O)C1` (stereo not shown) | -0.2129 | -1.353 | 0 | -26.18 |
| `CN(C)c1nc2c(c(N3CCCC3)n1)CCN(C(=O)c1ccc[nH]1)CC2` | 5.032 | 1.01 | 9.574 | 23.84 |
| `CCC(=O)N1CCN(C(=O)Nc2ccc(Cl)cc2)[C@H]2CS(=O)(=O)C[C@H]21` | -3.667 | 3.2 | 2.564 | - |
| `CS(=O)(=O)NCc1cnc2n1CCN(Cc1cccs1)CC2` | 0.6006 | 3.822 | 20.97 | -17.83 |
| `Cc1ncccc1CNCC1CCc2nnc(C(C)C)n2C1` (stereo not shown) | 1.147 | -23.77 | 7.08 | -5.012 |
| `Cn1ccnc1CN1CCN(CC(=O)NCc2ccccc2F)CC1` | 3.899 | 8.114 | 0 | -13.77 |
| `Cc1noc(C)c1-c1ccc(C2CCCN2C(=O)c2ccncn2)nc1` (stereo not shown) | 10.49 | 3.893 | 9.474 | -19.5 |
| `CC(C)(C)n1ncc2c(=O)n(CC(=O)NCc3ccco3)cnc21` | -0.9878 | 3.171 | 10.43 | -4.436 |
| `COc1ccc(CCNC(=O)N2CCN(C)[C@@H]3CS(=O)(=O)C[C@@H]32)cc1` | -3.259 | -21.13 | 12.82 | -3.271 |
| `COc1cccc(-c2cc(NCCN(C)C)nc3[nH]ccc23)n1` | -1.916 | 3.567 | 20.97 | 7.815 |
| `CC(=O)N1CCCC(c2ccc(N3CCOCC3)cn2)C1` (stereo not shown) | - | -0.3717 | 12 | -7.264 |
| `CNC(=O)[C@H]1C[C@H]2OCC[C@H]2N(Cc2ccc(F)cc2)C1` | -4.064 | 2.737 | 18.58 | -6.346 |
| `O=C(NCCC1=CCCCC1)C1CCN(c2ccc3nncn3n2)CC1` | 3.091 | -0.4386 | 17.14 | 1.45 |
| `CC(C)C1CN(S(=O)(=O)c2cccc(C#N)c2)CCS1` (stereo not shown) | -0.1875 | 2.593 | 3.175 | -6.449 |
| `COc1ccc(Br)c(C(=O)NCCNc2ccc(C(F)(F)F)cn2)c1` | -4.3 | 2.051 | 16 | -15.14 |
| `c1ccc(-n2ccc(CN3CCCC(Cn4cncn4)C3)n2)cc1` (stereo not shown) | -1.789 | 8.524 | 14.78 | -15.6 |
| `CCn1c(CN2CCCC2)nnc1C1CCN(Cc2ccccn2)CC1` | 1.687 | -2.447 | 17.81 | -18.1 |
| `Nc1nccnc1C1CN(C(=O)c2cnccn2)CCO1` (stereo not shown) | -4.116 | -1.46 | 17.89 | 18.07 |
| `COc1c(CNCc2ccccc2Cn2cncn2)c(C)nn1C` | -2.673 | -6.746 | 0 | -14.68 |
| `CCN(CC(=O)N(C)C)S(=O)(=O)c1cnc2c(c1)c(C)nn2C` | -4.156 | 5.372 | 6.667 | -21.27 |
| `COc1cc(OC)c2c(=O)oc(CC(O)CC(C)=O)cc2c1` (stereo not shown) | 1.883 | 6.546 | 2.778 | 25 |
| `COc1ccc(CCC(C)Nc2cccc(SC)c2)cc1` (stereo not shown) | -3.634 | 5.502 | 27.06 | 65.22 |
| `N#Cc1ccc(CNc2ncc(C#N)cc2Cl)cc1` | -3.152 | 3.586 | 19.18 | 1.212 |
| `Cc1ccoc1C(=O)NC1CCN(Cc2cccc3ccccc23)CC1` | -6.006 | 6.234 | 20 | -27.64 |
| `O=C(NCC(O)c1cccc(F)c1)c1cccnc1O` (stereo not shown) | -2.056 | 13.12 | 15.24 | -21.88 |
| `COCc1noc(C2(c3ccc(F)cc3)CCC2)n1` | -1.499 | 1.603 | 4.11 | 1.123 |
| `CN(Cc1cnn(C)c1)C(=O)NCc1cc(Br)cs1` | -0.387 | 10.59 | 9.174 | -4.96 |
| `CC(CNCc1ccc2c(c1)n(C)c(=O)n2C)Oc1ccccn1` (stereo not shown) | -3.011 | 4.798 | 21.05 | -10.47 |
| `COc1ccc(F)c(F)c1C(=O)N1C[C@@H](CN(C)CCO)[C@@H](CO)C1` | -0.5387 | 5.455 | 11.29 | -29.29 |
| `Cc1cc(N2CCOC(C)(C(=O)N(C)C)C2)ncn1` (stereo not shown) | -1.639 | 10.02 | 5.674 | 14.3 |
| `CC(=O)N(C)c1nc(Cn2nnnc2C(C)C)cs1` | -2.736 | -1.214 | 19.05 | 3.072 |
| `CCN(C(=O)c1ccc2nnc(C3CCN(C)C3)n2c1)C(C)C` (stereo not shown) | -5.151 | 3.941 | 14 | -10.39 |
| `COc1ccccc1OC1CCN(c2nc(N)nc3[nH]cnc23)CC1` | 0.8073 | 3.024 | 6.061 | -19.23 |
| `CCCN1CCN(C(=O)c2cccc3cccnc23)[C@H]2CS(=O)(=O)C[C@H]21` | 19.93 | 4.762 | 27.78 | 4.856 |
| `Cn1ccc(NC(=O)CN2CCN(C3CCCC3)C(=O)C2)n1` | 3.198 | -3.39 | 0 | 4.019 |
| `COc1cccc(C(=O)N2CCC(Nc3ccc(C)nn3)CC2)c1` | -1.278 | 3.69 | 11.3 | -21.63 |
| `O=C(c1cncc(NCC2COc3ccccc3C2)n1)N1CCOCC1` (stereo not shown) | 4.063 | -2.217 | 10 | 16.09 |
| `CN1CCc2c(CNc3ncccn3)n[nH]c2C1` | 16.38 | - | -8.547 | -18.13 |
| `COCCN1CCC12CCN(c1ncccn1)C2` (stereo not shown) | 2.47 | -1.895 | 15.04 | -32.67 |
| `Cn1cnn(Cc2c(F)cccc2Br)c1=O` | -4.4 | -4.065 | 12.61 | -11.06 |
| `N#Cc1ccc(C(=O)N2CCC(Oc3ccc(C#N)cn3)CC2)cc1` | 0.000007 | 4.12 | 0 | -4.784 |
| `Cc1cc(C(F)(F)F)nc(CNc2nc(C)nc3c2cnn3C)n1` | -0.6441 | 8.009 | 9.836 | -22.71 |
| `O=C(NCCNc1ncccn1)N1CCCC1c1ccc(F)cc1` (stereo not shown) | 3.263 | 1.139 | 18.07 | 3.651 |

Some entries from above, unchanged:

Compound	MtTrpRS	CoaBC	LiHisRS	Pks13 thioesterase
Cn1ccnc1CN1CCN(CC(=O)NCc2ccccc2F)CC1	3.899	8.114	0	-13.77
Cc1cccc(-c2noc(CN3CCCCC3Cn3cncn3)n2)c1 (stereo not shown)	-8.284	1.044	1.724	-8.709
O=C(NCCC1=CCCCC1)C1CCN(c2ccc3nncn3n2)CC1	3.091	-0.4386	17.14	1.45
CCc1cc(NCCS(=O)(=O)N(C)C)nc(N2CCOCC2)n1	-0.8256	-	15.83	-22.17
CN(Cc1cnn(C)c1)C(=O)NCc1cc(Br)cs1	-0.387	10.59	9.174	-4.96
COc1ccccc1OC1CCN(c2nc(N)nc3[nH]cnc23)CC1	0.8073	3.024	6.061	-19.23
CC(CCO)Nc1cccc(C(F)(F)F)n1 (stereo not shown)	-0.6369	5.622	19.4	-6.739

Measurements from “University of Dundee, Small-Polar-MMV Screening Library” (2021), ChEMBL document CHEMBL3988442.